# Test results taken from the supplement of paper PMC6411743.
# Amino acid sequences for entries named in this document (tags omitted). A change or cut given only in a name is not applied to a line headed by its entry.
# UniProt Q9NQV6: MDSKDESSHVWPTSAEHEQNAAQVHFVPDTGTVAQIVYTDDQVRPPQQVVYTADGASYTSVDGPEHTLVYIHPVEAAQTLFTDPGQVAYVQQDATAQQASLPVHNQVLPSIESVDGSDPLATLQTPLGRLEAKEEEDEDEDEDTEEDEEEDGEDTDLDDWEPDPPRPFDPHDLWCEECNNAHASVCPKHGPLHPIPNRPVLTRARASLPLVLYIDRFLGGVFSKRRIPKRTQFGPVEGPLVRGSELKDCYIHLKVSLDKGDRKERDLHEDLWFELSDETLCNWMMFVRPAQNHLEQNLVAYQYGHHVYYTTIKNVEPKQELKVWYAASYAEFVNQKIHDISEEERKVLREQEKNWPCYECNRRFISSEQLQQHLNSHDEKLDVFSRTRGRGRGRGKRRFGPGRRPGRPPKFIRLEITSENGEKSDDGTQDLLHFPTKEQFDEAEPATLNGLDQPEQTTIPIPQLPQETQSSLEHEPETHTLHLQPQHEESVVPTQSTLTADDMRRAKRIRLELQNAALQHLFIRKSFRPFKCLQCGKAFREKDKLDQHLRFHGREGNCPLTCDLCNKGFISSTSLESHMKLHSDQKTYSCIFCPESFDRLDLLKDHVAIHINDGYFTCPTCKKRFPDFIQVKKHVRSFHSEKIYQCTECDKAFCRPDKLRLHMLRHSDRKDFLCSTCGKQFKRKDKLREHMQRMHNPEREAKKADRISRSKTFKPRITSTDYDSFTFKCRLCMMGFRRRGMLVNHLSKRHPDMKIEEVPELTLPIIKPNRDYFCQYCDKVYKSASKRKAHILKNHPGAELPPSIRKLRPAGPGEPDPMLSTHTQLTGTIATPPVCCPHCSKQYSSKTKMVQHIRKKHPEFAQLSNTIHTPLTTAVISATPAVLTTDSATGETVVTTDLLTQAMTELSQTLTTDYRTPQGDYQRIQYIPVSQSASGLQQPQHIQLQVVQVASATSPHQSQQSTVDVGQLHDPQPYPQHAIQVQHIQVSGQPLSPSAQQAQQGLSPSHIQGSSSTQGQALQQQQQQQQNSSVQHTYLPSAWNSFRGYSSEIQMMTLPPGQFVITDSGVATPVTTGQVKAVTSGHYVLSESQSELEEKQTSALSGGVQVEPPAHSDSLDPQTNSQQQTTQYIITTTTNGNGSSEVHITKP
# UniProt O15027: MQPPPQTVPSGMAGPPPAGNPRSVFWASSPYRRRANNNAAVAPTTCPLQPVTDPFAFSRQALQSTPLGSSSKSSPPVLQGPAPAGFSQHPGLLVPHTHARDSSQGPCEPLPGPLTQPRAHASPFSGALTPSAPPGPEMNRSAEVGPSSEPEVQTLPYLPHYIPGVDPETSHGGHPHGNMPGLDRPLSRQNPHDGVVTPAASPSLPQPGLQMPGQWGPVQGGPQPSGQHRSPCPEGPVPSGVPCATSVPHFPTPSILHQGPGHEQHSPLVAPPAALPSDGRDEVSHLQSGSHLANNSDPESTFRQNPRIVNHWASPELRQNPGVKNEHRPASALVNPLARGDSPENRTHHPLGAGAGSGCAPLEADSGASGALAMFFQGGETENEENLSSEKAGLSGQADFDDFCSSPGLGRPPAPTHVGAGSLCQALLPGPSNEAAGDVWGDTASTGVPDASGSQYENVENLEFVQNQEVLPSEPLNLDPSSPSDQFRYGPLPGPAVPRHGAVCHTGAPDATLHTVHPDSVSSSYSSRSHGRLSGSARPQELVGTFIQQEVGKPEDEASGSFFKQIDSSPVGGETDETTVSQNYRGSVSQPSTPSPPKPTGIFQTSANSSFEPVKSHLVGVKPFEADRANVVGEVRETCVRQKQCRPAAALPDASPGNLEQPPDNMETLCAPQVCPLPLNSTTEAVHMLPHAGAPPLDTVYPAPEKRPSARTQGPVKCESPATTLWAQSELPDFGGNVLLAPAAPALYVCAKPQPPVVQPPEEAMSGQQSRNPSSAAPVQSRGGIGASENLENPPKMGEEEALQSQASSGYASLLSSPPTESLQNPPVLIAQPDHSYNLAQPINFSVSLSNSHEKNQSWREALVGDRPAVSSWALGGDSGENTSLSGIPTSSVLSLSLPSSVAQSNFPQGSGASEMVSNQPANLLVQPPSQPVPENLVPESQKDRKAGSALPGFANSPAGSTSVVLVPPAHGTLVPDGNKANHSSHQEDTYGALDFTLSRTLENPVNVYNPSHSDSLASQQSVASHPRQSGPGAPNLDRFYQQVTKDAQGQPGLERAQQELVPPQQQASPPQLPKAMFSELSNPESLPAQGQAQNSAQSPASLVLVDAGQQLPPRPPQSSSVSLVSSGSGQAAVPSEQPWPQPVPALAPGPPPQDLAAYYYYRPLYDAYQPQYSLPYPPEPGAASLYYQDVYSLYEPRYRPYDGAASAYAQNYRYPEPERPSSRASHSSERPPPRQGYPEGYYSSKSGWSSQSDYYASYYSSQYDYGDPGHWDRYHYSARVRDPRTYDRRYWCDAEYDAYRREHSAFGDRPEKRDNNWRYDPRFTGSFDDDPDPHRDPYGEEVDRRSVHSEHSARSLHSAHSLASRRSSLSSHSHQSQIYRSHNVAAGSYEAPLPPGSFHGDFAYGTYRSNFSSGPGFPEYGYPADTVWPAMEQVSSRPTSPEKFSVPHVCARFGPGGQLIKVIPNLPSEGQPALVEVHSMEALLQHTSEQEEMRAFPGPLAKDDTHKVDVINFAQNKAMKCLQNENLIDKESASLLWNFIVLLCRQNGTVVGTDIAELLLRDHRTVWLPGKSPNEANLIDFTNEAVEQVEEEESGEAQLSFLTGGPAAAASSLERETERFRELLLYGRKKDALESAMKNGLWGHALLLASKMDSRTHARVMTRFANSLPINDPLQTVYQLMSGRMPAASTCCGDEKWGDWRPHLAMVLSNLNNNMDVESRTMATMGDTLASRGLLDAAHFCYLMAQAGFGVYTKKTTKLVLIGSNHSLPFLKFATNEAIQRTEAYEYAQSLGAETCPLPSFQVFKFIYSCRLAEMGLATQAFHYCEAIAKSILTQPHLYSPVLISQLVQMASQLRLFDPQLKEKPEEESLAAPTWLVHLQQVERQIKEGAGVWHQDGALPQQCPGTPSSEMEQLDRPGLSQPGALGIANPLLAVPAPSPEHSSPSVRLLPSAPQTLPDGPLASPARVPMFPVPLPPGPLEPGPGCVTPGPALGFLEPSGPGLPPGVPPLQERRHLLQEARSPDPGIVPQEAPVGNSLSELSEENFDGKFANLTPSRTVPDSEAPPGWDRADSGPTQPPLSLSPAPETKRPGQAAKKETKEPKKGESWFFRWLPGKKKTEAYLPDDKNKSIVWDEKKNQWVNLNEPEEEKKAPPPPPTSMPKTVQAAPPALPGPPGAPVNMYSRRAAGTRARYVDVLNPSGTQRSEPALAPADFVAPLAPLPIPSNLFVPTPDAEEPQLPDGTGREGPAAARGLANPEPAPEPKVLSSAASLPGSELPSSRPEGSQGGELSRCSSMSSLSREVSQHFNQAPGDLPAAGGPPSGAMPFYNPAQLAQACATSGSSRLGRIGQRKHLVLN
# UniProt P61923: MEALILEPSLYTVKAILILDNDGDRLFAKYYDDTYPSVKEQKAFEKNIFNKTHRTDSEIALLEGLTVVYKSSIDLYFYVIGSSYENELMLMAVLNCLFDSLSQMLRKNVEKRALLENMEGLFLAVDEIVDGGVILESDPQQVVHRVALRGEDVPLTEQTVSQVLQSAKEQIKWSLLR
# UniProt Q5HYJ3: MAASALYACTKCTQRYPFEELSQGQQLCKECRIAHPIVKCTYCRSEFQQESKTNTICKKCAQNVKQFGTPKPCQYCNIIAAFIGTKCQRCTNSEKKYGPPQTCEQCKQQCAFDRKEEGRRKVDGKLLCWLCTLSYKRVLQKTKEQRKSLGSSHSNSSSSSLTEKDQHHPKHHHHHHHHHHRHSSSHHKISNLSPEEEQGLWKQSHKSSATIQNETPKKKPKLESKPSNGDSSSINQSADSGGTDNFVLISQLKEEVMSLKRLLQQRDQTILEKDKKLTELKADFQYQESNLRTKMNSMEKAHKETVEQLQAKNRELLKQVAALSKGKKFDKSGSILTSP
# UniProt O00244: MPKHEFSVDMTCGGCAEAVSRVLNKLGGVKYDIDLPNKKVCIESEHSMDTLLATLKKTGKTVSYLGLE
# UniProt O95831, whole entry: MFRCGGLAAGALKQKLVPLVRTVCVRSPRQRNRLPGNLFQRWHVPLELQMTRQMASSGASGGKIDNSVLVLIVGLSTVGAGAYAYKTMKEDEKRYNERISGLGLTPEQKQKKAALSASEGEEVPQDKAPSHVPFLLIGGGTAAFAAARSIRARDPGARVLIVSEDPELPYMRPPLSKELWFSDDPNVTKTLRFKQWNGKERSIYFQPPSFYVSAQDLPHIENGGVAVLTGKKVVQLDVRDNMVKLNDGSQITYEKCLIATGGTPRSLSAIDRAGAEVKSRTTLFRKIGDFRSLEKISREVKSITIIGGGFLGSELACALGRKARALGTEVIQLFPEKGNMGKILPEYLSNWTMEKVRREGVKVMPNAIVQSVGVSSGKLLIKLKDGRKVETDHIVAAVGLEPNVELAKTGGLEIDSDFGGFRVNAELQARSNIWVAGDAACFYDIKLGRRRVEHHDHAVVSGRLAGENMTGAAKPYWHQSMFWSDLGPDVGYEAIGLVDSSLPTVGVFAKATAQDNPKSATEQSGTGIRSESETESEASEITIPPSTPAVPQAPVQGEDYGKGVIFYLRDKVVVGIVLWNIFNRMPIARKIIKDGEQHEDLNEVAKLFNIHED
# UniProt Q92994: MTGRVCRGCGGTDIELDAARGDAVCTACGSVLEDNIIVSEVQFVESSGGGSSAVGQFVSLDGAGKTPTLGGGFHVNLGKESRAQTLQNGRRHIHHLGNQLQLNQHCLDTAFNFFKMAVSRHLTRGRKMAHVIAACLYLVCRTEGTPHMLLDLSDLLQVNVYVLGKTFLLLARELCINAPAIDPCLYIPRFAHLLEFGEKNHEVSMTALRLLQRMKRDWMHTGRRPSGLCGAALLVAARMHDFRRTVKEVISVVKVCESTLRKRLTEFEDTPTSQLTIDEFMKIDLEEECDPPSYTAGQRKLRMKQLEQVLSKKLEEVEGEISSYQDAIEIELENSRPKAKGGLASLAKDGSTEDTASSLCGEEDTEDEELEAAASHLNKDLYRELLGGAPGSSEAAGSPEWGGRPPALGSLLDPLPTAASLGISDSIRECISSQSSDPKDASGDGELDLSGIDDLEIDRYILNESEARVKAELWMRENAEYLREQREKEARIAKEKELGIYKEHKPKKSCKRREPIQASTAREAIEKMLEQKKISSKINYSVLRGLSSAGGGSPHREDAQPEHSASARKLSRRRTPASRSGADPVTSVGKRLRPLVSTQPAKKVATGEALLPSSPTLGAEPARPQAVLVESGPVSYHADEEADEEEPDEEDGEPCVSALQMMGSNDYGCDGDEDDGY
# UniProt P27816: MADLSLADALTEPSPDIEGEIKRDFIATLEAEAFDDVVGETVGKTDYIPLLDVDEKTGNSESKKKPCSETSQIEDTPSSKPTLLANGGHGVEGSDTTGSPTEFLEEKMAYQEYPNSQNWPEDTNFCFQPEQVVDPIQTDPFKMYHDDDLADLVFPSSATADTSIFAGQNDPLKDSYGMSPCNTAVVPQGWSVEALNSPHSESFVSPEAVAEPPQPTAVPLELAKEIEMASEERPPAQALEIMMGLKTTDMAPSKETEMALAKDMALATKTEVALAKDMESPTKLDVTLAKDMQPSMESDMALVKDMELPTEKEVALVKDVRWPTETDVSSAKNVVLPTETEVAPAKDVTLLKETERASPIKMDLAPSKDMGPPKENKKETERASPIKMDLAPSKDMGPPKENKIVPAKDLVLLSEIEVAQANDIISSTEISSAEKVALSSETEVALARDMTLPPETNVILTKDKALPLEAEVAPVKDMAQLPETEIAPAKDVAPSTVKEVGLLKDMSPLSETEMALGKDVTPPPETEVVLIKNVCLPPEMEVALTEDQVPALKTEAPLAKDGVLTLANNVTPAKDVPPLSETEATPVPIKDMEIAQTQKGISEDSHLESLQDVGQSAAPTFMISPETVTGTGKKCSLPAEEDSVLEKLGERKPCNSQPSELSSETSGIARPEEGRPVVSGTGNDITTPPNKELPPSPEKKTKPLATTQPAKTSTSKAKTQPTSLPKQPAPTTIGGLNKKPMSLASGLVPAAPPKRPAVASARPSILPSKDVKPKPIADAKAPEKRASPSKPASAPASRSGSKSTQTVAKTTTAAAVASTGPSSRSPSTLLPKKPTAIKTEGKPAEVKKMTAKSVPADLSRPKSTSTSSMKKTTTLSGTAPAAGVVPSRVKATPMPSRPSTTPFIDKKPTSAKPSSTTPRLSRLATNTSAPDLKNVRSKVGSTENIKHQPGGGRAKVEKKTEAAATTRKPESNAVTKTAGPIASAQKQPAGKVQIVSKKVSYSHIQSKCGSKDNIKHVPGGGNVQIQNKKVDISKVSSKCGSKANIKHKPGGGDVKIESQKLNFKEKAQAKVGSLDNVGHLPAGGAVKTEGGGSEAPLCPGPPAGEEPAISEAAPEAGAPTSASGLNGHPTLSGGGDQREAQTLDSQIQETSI
# ± gives the standard deviation of the averaged measurements. The list shows a part of the results, in another mix than the full data.
# Compound: Nc1ncnc2c1ncn2[C@@H]1O[C@H](COP(=O)(O)OP(=O)(O)OP(=O)(O)O)[C@@H](O)[C@H]1O [adenosine triphosphate]
# Test: NP40-soluble protein abundance relative to vehicle (solubility fold change) (ratio); higher = more soluble protein in presence of ATP
# Summary of the method: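 Jurkat crude lysate (Dounce-homogenised) was treated with eight concentrations from 0.1 to 10 mM for 10 min at room temperature, then 3 min at 37 °C. It was solubilised with 0.8% NP40 and benzonase (60 min, 4 °C) and ultracentrifuged, and the supernatant was TMT-labelled for LC-MS/MS. Intensities were vsn-normalised, and the value is the fold change against the NP40-processed vehicle per replicate, from three independent experiments.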
Target,NP40-soluble protein abundance (concentration: 1mM),NP40-soluble protein abundance (concentration: 2mM),NP40-soluble protein abundance (concentration: 4mM),NP40-soluble protein abundance (concentration: 6mM),NP40-soluble protein abundance (concentration: 8mM),NP40-soluble protein abundance (concentration: 10mM)
E9PLV1 and related entries (UniProt Q9NQV6),0.962 ± 0.051,0.956 ± 0.091,0.983 ± 0.068,0.954 ± 0.046,0.939 ± 0.073,0.94 ± 0.063
E5RHA3 and related entries (UniProt Q86X53),0.96 ± 0.11,0.976 ± 0.062,0.963 ± 0.078,0.954 ± 0.035,0.931 ± 0.062,0.97 ± 0.12
E7EPT4 and related entries (UniProt P19404),0.929 ± 0.1,0.918 ± 0.075,0.903 ± 0.074,0.885 ± 0.12,0.91 ± 0.078,0.844 ± 0.072
F8WB06 and related entries (UniProt Q99700),1 ± 0.014,1.04 ± 0.026,1.09 ± 0.04,1.15 ± 0.07,1.14 ± 0.034,1.17 ± 0.041
F1T0I1 and related entries (UniProt O15027),1.13 ± 0.044,1.15 ± 0.069,1.19 ± 0.067,1.22 ± 0.14,1.22 ± 0.1,1.24 ± 0.1
E5RIH5 and related entries (UniProt Q6NXR4),0.942 ± 0.024,0.929 ± 0.027,0.929 ± 0.039,0.972 ± 0.011,0.958 ± 0.019,0.958 ± 0.067
F8VVA7 and related entries (UniProt P61923),1.03 ± 0.1,1.01 ± 0.06,0.958 ± 0.046,1.046 ± 0.0071,0.965 ± 0.067,0.906 ± 0.038
G3XAI2 and related entries (UniProt P07942),0.94 ± 0.11,1.01 ± 0.087,0.996 ± 0.087,1.02 ± 0.15,1.02 ± 0.17,1.02 ± 0.079
E9PG19 and related entries (UniProt O94868),0.963 ± 0.014,0.956 ± 0.012,0.982 ± 0.034,1.01 ± 0.048,0.962 ± 0.051,0.953 ± 0.029
F5GWA4 and related entries (UniProt Q9H3F6),1.14 ± 0.087,1.1 ± 0.1,1.08 ± 0.1,1.06 ± 0.16,1.11 ± 0.048,1.03 ± 0.12
F8W543 and related entries (UniProt P55209),0.876 ± 0.18,0.907 ± 0.083,0.916 ± 0.047,0.923 ± 0.095,0.931 ± 0.019,0.936 ± 0.017
G3V5X4 and related entries (UniProt Q8WXH0),1.01 ± 0.015,0.986 ± 0.016,0.97 ± 0.022,0.98 ± 0.028,0.97 ± 0.023,0.988 ± 0.027
G3V1A6 and related entries (UniProt P57764),1 ± 0.048,0.977 ± 0.03,0.953 ± 0.05,0.941 ± 0.096,1 ± 0.04,0.943 ± 0.0097
F5GX09 and related entries (UniProt Q5HYJ3),0.884 ± 0.043,0.911 ± 0.012,0.923 ± 0.0053,0.969 ± 0.041,0.9096 ± 0.0071,0.96 ± 0.028
E9PKB1 and related entries (UniProt Q0P6D6),1.01 ± 0.19,1.01 ± 0.22,1.09 ± 0.046,1.17 ± 0.21,1.01 ± 0.05,1.05 ± 0.071
F8WC89 (UniProt A6NKF1),0.838 ± 0.04,0.878 ± 0.022,0.881 ± 0.027,0.875 ± 0.1,0.883 ± 0.018,0.967 ± 0.036
E9PL24 and related entries (UniProt Q5VU43),0.985 ± 0.043,0.942 ± 0.032,0.978 ± 0.05,0.951 ± 0.12,0.939 ± 0.056,0.935 ± 0.049

# Some entries already given, showing only NP40-soluble protein abundance (concentration: 10mM) and NP40-soluble protein abundance (concentration: 4mM):
Target	NP40-soluble protein abundance (concentration: 10mM)	NP40-soluble protein abundance (concentration: 4mM)
F8W543 and related entries (UniProt P55209)	0.936 ± 0.017	0.916 ± 0.047
G3V5X4 and related entries (UniProt Q8WXH0)	0.988 ± 0.027	0.97 ± 0.022

# (next part)

Target,NP40-soluble protein abundance (concentration: 1mM),NP40-soluble protein abundance (concentration: 2mM),NP40-soluble protein abundance (concentration: 4mM),NP40-soluble protein abundance (concentration: 6mM),NP40-soluble protein abundance (concentration: 8mM),NP40-soluble protein abundance (concentration: 10mM)
E9PQY3 and related entries (UniProt P11117),0.975 ± 0.03,1.03 ± 0.014,0.996 ± 0.027,1.04 ± 0.046,0.964 ± 0.066,0.925 ± 0.077
E7EW84 and related entries (UniProt Q8TAG9),0.968 ± 0.047,0.967 ± 0.013,0.981 ± 0.097,0.947 ± 0.1,0.953 ± 0.045,1 ± 0.065
E9PMR4 and related entries (UniProt P48509),0.919 ± 0.1,0.928 ± 0.05,0.926 ± 0.044,0.921 ± 0.03,0.865 ± 0.057,0.876 ± 0.027
E5RIM7 and related entries (UniProt O00244),0.905 ± 0.075,0.881 ± 0.056,0.86 ± 0.063,0.869 ± 0.034,0.875 ± 0.016,0.765 ± 0.12
E9PJ04 and related entries (UniProt Q13435),1.05 ± 0.075,1.04 ± 0.054,1.05 ± 0.068,1.15 ± 0.098,1.09 ± 0.054,1.1 ± 0.053
E9PRR0 and related entries (UniProt O95831),1.03 ± 0.026,1 ± 0.03,0.983 ± 0.025,0.973 ± 0.046,0.994 ± 0.041,0.977 ± 0.02
E9PK67 and related entries (UniProt Q53GL7),0.997 ± 0.015,0.99 ± 0.022,0.982 ± 0.015,0.9698 ± 0.0013,0.947 ± 0.015,0.961 ± 0.034
E7EWP0 and related entries (UniProt O43674),0.892 ± 0.029,0.891 ± 0.02,0.875 ± 0.049,0.858 ± 0.025,0.891 ± 0.015,0.853 ± 0.11
E5KP25 and related entries (UniProt Q9UIF7),0.864 ± 0.091,0.853 ± 0.015,0.893 ± 0.1,0.832 ± 0.03,0.805 ± 0.03,0.864 ± 0.018
F8VS36 and related entries (UniProt Q92994),0.982 ± 0.069,1.02 ± 0.097,0.982 ± 0.013,1.02 ± 0.058,0.958 ± 0.059,0.97 ± 0.025
F5GX51 and related entries (UniProt Q9Y4F9),1.03 ± 0.038,1.02 ± 0.015,1.02 ± 0.035,0.973 ± 0.049,0.986 ± 0.029,1.02 ± 0.025
E9PLI6 and related entries (UniProt Q8N9N8),1.05 ± 0.0085,1.04 ± 0.012,1.05 ± 0.025,1.07 ± 0.014,0.987 ± 0.089,1.01 ± 0.092
E7EVA0 and related entries (UniProt P27816),0.929 ± 0.062,0.933 ± 0.015,0.903 ± 0.024,0.991 ± 0.037,0.913 ± 0.032,0.916 ± 0.018
F8VU11 and related entries (UniProt Q6NWY9),1.05 ± 0.053,1.1 ± 0.074,1.15 ± 0.15,1.16 ± 0.098,1.09 ± 0.16,1.17 ± 0.2
E9PN10 and related entries (UniProt O00559),0.96 ± 0.11,0.994 ± 0.094,0.974 ± 0.07,0.956 ± 0.065,1 ± 0.064,0.93 ± 0.16
E9PIK4 and related entries (UniProt O14683),0.966 ± 0.25,0.944 ± 0.19,0.977 ± 0.23,0.918 ± 0.22,0.942 ± 0.18,0.92 ± 0.16
